Values of other authors, collected in patent publication US9592197B2, “Dosage form containing diphenhydramine and another drug” (SOVEREIGN PHARMACEUTICALS, LLC, priority 2004, dated 2017).

CN(C)CCOC(c1ccccc1)c1ccccc1 [diphenydramine, diphenhydramine]
period over which a single dose provides a therapeutically effective plasma concentration: 4 to 6 h
